Source: the supplement of paper PMC5949888
Most values lie at the floor of the assay. Slopes are relative: functional sequences can read slightly below zero.

System: Saccharomyces cerevisiae PS128 hsf1 delta, HSF1(1-493) fusion
Assay: growth estimate (transactivation domain function in HSF1 fusion, heat-shock survival) (a.u. (slope of normalised read count over time)); higher = stronger growth at 37°C, i.e. more transactivation activity
Details: library: random library
Method: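 Random 60-nt DNA library encoding peptides of up to 20 aa, fused to the C-terminus of yeast HSF1 residues 1-493 (C-terminal TAD deleted) and expressed from the native HSF1 promoter on a CEN plasmid in hsf1-deleted S. cerevisiae PS128. Cells were selected at 37°C on -trp 5-FOA plates for 0, 2, 4, 6 and 8 days and amplicons were sequenced. Growth estimate is the slope of a robust linear fit of total-sum-normalised read counts (normalised to the first time point) over time, using at least 2 replicates. Sequences are classed functional (TAD activity) above a threshold of -0.13, set from stop-codon control sequences.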

| Substance | growth estimate |
| --- | --- |
| PVIGPQSRTDGVWGLVPVSR | < -0.25 |
| ACWTR | < -0.25 |
| DIEEPPWGAVTGAEITNLTR | < -0.25 |
| GKGRTVM | < -0.25 |
| CPLVRPHVVGEHGLDRLVQQ | < -0.25 |
| DCSAGLGEIAGVSSNEPARR | -0.243 |
| PGDSSVGSPLNIRQFPSLVT | < -0.25 |
| RSVRFGNSDCS | -0.246 |
| REKQSFPFRS | < -0.25 |
| VQEGRLGQSQGGG | < -0.25 |
| NMGFSRSTQMLAGLAPRK | < -0.25 |
| CKSGKLGRTARTLTSHTDCQ | < -0.25 |
| GGEPRISSEQQATPRPRVYG | < -0.25 |
| SNSTVL | < -0.25 |
| FRSQRPPQSYLRDVLGSARA | < -0.25 |
| IASRQAVFRPGVTGCATR | < -0.25 |
| AQRALNR | < -0.25 |
| ACFEVVPMAV | < -0.25 |
| PRLLDALKLGSHCPCQT | < -0.25 |
| IAVSKPS | < -0.25 |
| DPRVCVVGYACL | < -0.25 |
| WKTV | < -0.25 |
| CNTSTDDSCK | < -0.25 |
| SCPNKCVGKRTLGKRFSAA | < -0.25 |
| TAVVMTNLLFGGNEFSAVTS | < -0.25 |

| Substance | growth estimate |
| --- | --- |
| GTAKWCRTHWPEVLALPRAA | < -0.25 |
| GAATN | < -0.25 |
| GGERGRRGTFVIAAESTCHT | < -0.25 |
| NELR | < -0.25 |
| LCFRRRLESSPRFITCMVLN | < -0.25 |
| NASGL | < -0.25 |
| DGLVTNLPPSHDAFHASTSY | < -0.25 |
| HSIRSILSDVKMVTPSGDRG | < -0.25 |
| TGISGHYKANGAVLDKIRKN | < -0.25 |
| LVIVT | < -0.25 |
| SSGK | < -0.25 |
| LTT | < -0.25 |
| WHARTAYIRVVSCPNGARRP | < -0.25 |
| NSVK | < -0.25 |
| CAGGV | < -0.25 |
| KLPAKGDTDQN | < -0.25 |
| HHRHHKGMAKCSMVSLILSW | < -0.25 |
| RIDGSTDRL | < -0.25 |
| ITVQALMCFSQRLAQRFIGH | -0.246 |
| KYRVVS | < -0.25 |
| ALSRYNRRGSSAVTQSGFVG | -0.246 |
| IFAPIARYRRRVKGAKPGSS | < -0.25 |
| GRQTFCTDVRLGAPRMRQSM | < -0.25 |
| TGWCGDADWMTF | < -0.25 |
| AERNVE | < -0.25 |

| Substance | growth estimate |
| --- | --- |
| LSGACREAACATKNSGDMTA | < -0.25 |
| CQVKNLAASRCH | < -0.25 |
| CRAIWSRARVVASPGQGDRG | < -0.25 |
| RLERG | < -0.25 |
| GRPVLECDSTLAEWPGFMLV | < -0.25 |
| DQV | < -0.25 |
| HDSLYTRSLPSA | < -0.25 |
| VCSLNRTLA | < -0.25 |
| WRLTHIGSGDEILLCAYMDL | < -0.25 |
| CCLAVCGTAIRLVSLSSDMP | < -0.25 |
| WQQLVWSGQKLTISVTRWSL | < -0.25 |
| LVLGLSARA | < -0.25 |
| CLEFAG | < -0.25 |
| EGLTSENMIVEILKPPCVQH | < -0.25 |
| KRHRRMTRLPDRSHEYYPTC | < -0.25 |
| LGIG | < -0.25 |
| EEVQV | < -0.25 |
| KSFPRTRT | < -0.25 |
| RLLGLQFWGFQWRKT | < -0.25 |
| SPPL | < -0.25 |
| NHHGSTSRWPIGPWLGQ | < -0.25 |
| GQIVSCQYVRVLE | < -0.25 |
| PIAVVGMINEQYGEIN | < -0.25 |
| FNVVQRDC | < -0.25 |
| MVFGGVPEGSCLWEERQSRG | < -0.25 |

| Substance | growth estimate |
| --- | --- |
| TRLGPELARRTLISYGANTP | < -0.25 |
| RVDCQQSPTRPNAQGPTKGY | < -0.25 |
| LTKMSTWYSWI | < -0.25 |
| ILSKPWGRLCTPGIVQGELE | < -0.25 |
| PQLSAVSPPDKDVRGTQTAC | < -0.25 |
| RIQWCSTALPRAFRY | < -0.25 |
| QGAYMGTGIESVSSEDIENS | < -0.25 |
| RNSRTGPTESSVHPPSLRPS | < -0.25 |
| VGGWLRLSGNSSHLESELST | < -0.25 |
| SVADPVDVGDFLARELDCHW | -0.142 |
| ICAGRIKALGRR | < -0.25 |
| WLYGVSHIKTGPLAFHVPSC | < -0.25 |
| SCSTPPNYTERVYLVVSASS | < -0.25 |
| VAICWARTRPSRADLTCPSR | < -0.25 |
| HYTTALFRTRI | < -0.25 |
| RLRGANSAAPEQESR | < -0.25 |
| VAQYLSL | < -0.25 |
| CSGHT | < -0.25 |
| YSPRVD | < -0.25 |
| YDTGGSSLGPRFAC | < -0.25 |
| ESAPEGR | < -0.25 |
| SRSQSAPVCRHVRVPLDRAF | < -0.25 |
| SLLGRHVCVSRIATWAARVQ | < -0.25 |
| FVDYPA | < -0.25 |
| WWCELSPPSLRDLG | < -0.25 |

Quoted from the listing:
growth estimate with YDTGGSSLGPRFAC is entered as < -0.25
growth estimate with SNSTVL is entered as < -0.25
growth estimate with VAQYLSL is entered as < -0.25
growth estimate with VGGWLRLSGNSSHLESELST is entered as < -0.25
growth estimate with KYRVVS is entered as < -0.25
growth estimate with CQVKNLAASRCH is entered as < -0.25
growth estimate with WKTV is entered as < -0.25

The listing continues:

| Substance | growth estimate |
| --- | --- |
| EIHGR | -0.25 |
| MFAICRVIVV | -0.197 |
| FGESTTYVRSRHRWSITKET | < -0.25 |
| VASSS | < -0.25 |
| LRCAK | < -0.25 |
| IGGYAHLFREDSAGASRRQK | < -0.25 |
| MGEDRVGSH | < -0.25 |
| NASVKAEHGDV | < -0.25 |
| CRLTPGTSDHYLASCRLRDQ | < -0.25 |
| HRSGRVF | < -0.25 |
| PIYKYGRQKFRIIISFSLKS | < -0.25 |
| ISTSVRSYRNGHVPRSPIR | < -0.25 |
| NMELTVRVWDSRFKRTEPRY | < -0.25 |
| DYTLVRQGKINTVGGGTVVA | < -0.25 |
| TDMSWGSFPKSKIVDLWVVG | < -0.25 |
| LFR | < -0.25 |
| CAPQPTKSTMAMRLSQTKVD | < -0.25 |
| PGTWE | < -0.25 |
| VLLDWRKG | < -0.25 |
| PQTVLRSGAVDLITATLLC | < -0.25 |
| PGVLSPIIRGQVRSRGGART | < -0.25 |
| VFKGLPSR | -0.236 |
| APREPSRGLIIDNSY | < -0.25 |
| NGWQ | -0.246 |
| REQDPATCGGTPS | < -0.25 |

A run of entries of the results above, as a working copy:

| Substance | growth estimate |
| --- | --- |
| RIQWCSTALPRAFRY | < -0.25 |
| QGAYMGTGIESVSSEDIENS | < -0.25 |
| RNSRTGPTESSVHPPSLRPS | < -0.25 |

The results go on:

| Substance | growth estimate |
| --- | --- |
| YDSFPL | < -0.25 |
| DNEHDRS | < -0.25 |
| LYGS | < -0.25 |
| IIPRCETDRGPRSKSRMECY | < -0.25 |
| PRVCHALYGCYLTGYHGVSE | < -0.25 |
| SKGKHAISKRVGTGPFHRAT | < -0.25 |
| DVIYTEPEKS | < -0.25 |
| GNIW | < -0.25 |
| SEDYGRMRSIYVIKAVRGSR | < -0.25 |
| GCEFNDQ | < -0.25 |
| FHPRSWSLAGGV | < -0.25 |
| PAMQD | -0.246 |
| MSLG | < -0.25 |
| VTNLLRPLTPYRRYGDDPSG | < -0.25 |
| LTKVSTRYPSRPVGGARIPR | < -0.25 |
| FRKVIPRGRYCDWRSEMTAE | < -0.25 |
| SISKGPAIPGPSSVARMWAP | < -0.25 |
| ESFQLKTSSR | < -0.25 |
| YCEMGVLVETSAPPIRSVLL | < -0.25 |
| ICVS | < -0.25 |
| RGWTATYEHCPILNRSRVLS | -0.246 |
| GGGAVQF | < -0.25 |
| HWLGRCSMIRGR | < -0.25 |
| GLCDYG | < -0.25 |
| FAVNLNSGRKGPSTTQR | -0.216 |

| Substance | growth estimate |
| --- | --- |
| RISRMPGL | < -0.25 |
| AQSNGSRG | < -0.25 |
| IQITPSARKWCGPNLVFCIE | < -0.25 |
| KTETFPTSNRVGIQPPQLCH | < -0.25 |
| GRLGLLLVVGRECA | < -0.25 |
| NLLHLRWSS | < -0.25 |
| GVGMTIINLC | < -0.25 |
| SGRMGSSRSRRS | < -0.25 |
| RPRDWRNCQ | -0.241 |
| RTAPGCALR | < -0.25 |
| GWVRLAALLSIWLNRLPFNP | < -0.25 |
| VTRDS | < -0.25 |
| PTFS | -0.243 |
| RADDEEAR | < -0.25 |
| SSSKGRSWLVAWMKVNLRHR | < -0.25 |
| QLGIIPQGGP | < -0.25 |
| IRRCRLRGGSFFHVVSLLRV | < -0.25 |
| ARSHG | < -0.25 |
| PFWKINL | < -0.25 |
| AMIVESAGPGRGSSANPRRG | < -0.25 |
| SDGIRAF | < -0.25 |
| HCLAGTGVQSVEKVLALYAD | < -0.25 |
| VGGPFPSS | < -0.25 |
| RLYVTSAWTYA | < -0.25 |
| NKIVR | -0.219 |

| Substance | growth estimate |
| --- | --- |
| IPTASSQSKVWPEVALLRCA | < -0.25 |
| TQPVGTNFSARRGNILTEPS | < -0.25 |
| FCTELQGRTRYSHHHLREYS | < -0.25 |
| TRQP | < -0.25 |
| AHF | < -0.25 |
| LMKLWNCGLTEQCFT | < -0.25 |
| PVICYSSYPTKWLLSLIWVQ | < -0.25 |
| LGLPTLKRAKTRVHTGS | < -0.25 |
| QFP | -0.25 |
| VQAECSGYRAQPVAV | < -0.25 |
| LVNGASDNILGQLHIEVRRL | < -0.25 |
| SPKPFEHVI | -0.199 |
| QMPQFPGRHHTSGHVPITPL | < -0.25 |
| PCVKWLWES | -0.245 |
| RYRGLGQVSHSKLISLDSSH | < -0.25 |
| VASGITLVRYRLLYTALSME | < -0.25 |
| HGEHR | < -0.25 |
| LHLRSVNTFRITARVVF | < -0.25 |
| FSCYL | < -0.25 |
| YIR | < -0.25 |
| IHTGSSCGKRVKIKPARIDT | -0.246 |
| VRDRSVAE | < -0.25 |
| SLENV | < -0.25 |
| TPLIPQVDGRSSVCSGMCRD | < -0.25 |
